# Test results taken from ChEMBL document CHEMBL4316593 (Eur J Med Chem, 2019).
# The source gives many values for each of these; only a part stands here.
# How the values were obtained:
# Type in all cases: cell-based
# Details in all cases: U-87MG ATCC
# [1] = Inhibition of RTK/PI3K/AKT/mTOR signaling in human U87 cells assessed as down regulation of USP4 gene expression at cytotoxic IC50 measured after 48 hrs relative to control
# [2] = Inhibition of RTK/PI3K/AKT/mTOR signaling in human U87 cells assessed as down regulation of SLFN5 gene expression at cytotoxic IC50 measured after 48 hrs relative to control
# [3] = Inhibition of RTK/PI3K/AKT/mTOR signaling in human U87 cells assessed as up regulation of KRT81 gene expression at cytotoxic IC50 measured after 48 hrs relative to control
# [4] = Inhibition of RTK/PI3K/AKT/mTOR signaling in human U87 cells assessed as up regulation of MOB kinase activator 3A gene expression at cytotoxic IC50 measured after 48 hrs relative to control
# [5] = Inhibition of RTK/PI3K/AKT/mTOR signaling in human U87 cells assessed as up regulation of extended synaptotagmin 1 gene expression at cytotoxic IC50 measured after 48 hrs relative to control
# [6] = Inhibition of RTK/PI3K/AKT/mTOR signaling in human U87 cells assessed as up regulation of alpha kinase 1 gene expression at cytotoxic IC50 measured after 48 hrs relative to control
# [7] = Inhibition of RTK/PI3K/AKT/mTOR signaling in human U87 cells assessed as up regulation of WDR6 gene expression at cytotoxic IC50 measured after 48 hrs relative to control
# [8] = Inhibition of RTK/PI3K/AKT/mTOR signaling in human U87 cells assessed as up regulation of carbohydrate sulfotransferase 15 gene expression at cytotoxic IC50 measured after 48 hrs relative to control
# [9] = Inhibition of RTK/PI3K/AKT/mTOR signaling in human U87 cells assessed as down regulation of C5orf22 gene expression at cytotoxic IC50 measured after 48 hrs relative to control
# [10] = Inhibition of RTK/PI3K/AKT/mTOR signaling in human U87 cells assessed as up regulation of zinc fingers and homeoboxes 2 gene expression at cytotoxic IC50 measured after 48 hrs relative to control
# [11] = Inhibition of RTK/PI3K/AKT/mTOR signaling in human U87 cells assessed as up regulation of FZD2 gene expression at cytotoxic IC50 measured after 48 hrs relative to control
# [12] = Inhibition of RTK/PI3K/AKT/mTOR signaling in human U87 cells assessed as down regulation of ZWINT gene expression at cytotoxic IC50 measured after 48 hrs relative to control
# [13] = Inhibition of RTK/PI3K/AKT/mTOR signaling in human U87 cells assessed as up regulation of Mov10 RISC complex RNA helicase gene expression at cytotoxic IC50 measured after 48 hrs relative to control
# [14] = Inhibition of RTK/PI3K/AKT/mTOR signaling in human U87 cells assessed as down regulation of COL4A3BP gene expression at cytotoxic IC50 measured after 48 hrs relative to control
# [15] = Inhibition of RTK/PI3K/AKT/mTOR signaling in human U87 cells assessed as up regulation of BAIAP2 antisense RNA 1 (head to head) gene expression at cytotoxic IC50 measured after 48 hrs relative to control
# [16] = Inhibition of RTK/PI3K/AKT/mTOR signaling in human U87 cells assessed as down regulation of VPS39 gene expression at cytotoxic IC50 measured after 48 hrs relative to control
# [17] = Inhibition of RTK/PI3K/AKT/mTOR signaling in human U87 cells assessed as up regulation of HR, lysine demethylase and nuclear receptor corepressor gene expression at cytotoxic IC50 measured after 48 hrs relative to control
# [18] = Inhibition of RTK/PI3K/AKT/mTOR signaling in human U87 cells assessed as up regulation of phospholipase D family member 3 gene expression at cytotoxic IC50 measured after 48 hrs relative to control
# [19] = Inhibition of RTK/PI3K/AKT/mTOR signaling in human U87 cells assessed as down regulation of DHX16 gene expression at cytotoxic IC50 measured after 48 hrs relative to control
# [20] = Inhibition of RTK/PI3K/AKT/mTOR signaling in human U87 cells assessed as down regulation of OTUD6B gene expression at cytotoxic IC50 measured after 48 hrs relative to control
# [21] = Inhibition of RTK/PI3K/AKT/mTOR signaling in human U87 cells assessed as up regulation of methylthioadenosine phosphorylase gene expression at cytotoxic IC50 measured after 48 hrs relative to control
# [22] = Inhibition of RTK/PI3K/AKT/mTOR signaling in human U87 cells assessed as down regulation of MYLIP gene expression at cytotoxic IC50 measured after 48 hrs relative to control
# [23] = Inhibition of RTK/PI3K/AKT/mTOR signaling in human U87 cells assessed as up regulation of protein phosphatase 1 regulatory subunit 16A gene expression at cytotoxic IC50 measured after 48 hrs relative to control
# [24] = Inhibition of RTK/PI3K/AKT/mTOR signaling in human U87 cells assessed as down regulation of EPC1 gene expression at cytotoxic IC50 measured after 48 hrs relative to control
# [25] = Inhibition of RTK/PI3K/AKT/mTOR signaling in human U87 cells assessed as down regulation of ALAS1 gene expression at cytotoxic IC50 measured after 48 hrs relative to control
# [26] = Inhibition of RTK/PI3K/AKT/mTOR signaling in human U87 cells assessed as up regulation of DFFA gene expression at cytotoxic IC50 measured after 48 hrs relative to control
# [27] = Inhibition of RTK/PI3K/AKT/mTOR signaling in human U87 cells assessed as down regulation of DYNC1LI1 gene expression at cytotoxic IC50 measured after 48 hrs relative to control
# [28] = Inhibition of RTK/PI3K/AKT/mTOR signaling in human U87 cells assessed as down regulation of SDE2 gene expression at cytotoxic IC50 measured after 48 hrs relative to control
# [29] = Inhibition of RTK/PI3K/AKT/mTOR signaling in human U87 cells assessed as up regulation of chromodomain helicase DNA binding protein 3 gene expression at cytotoxic IC50 measured after 48 hrs relative to control
# [30] = Inhibition of RTK/PI3K/AKT/mTOR signaling in human U87 cells assessed as down regulation of MARK3 gene expression at cytotoxic IC50 measured after 48 hrs relative to control
# [31] = Inhibition of RTK/PI3K/AKT/mTOR signaling in human U87 cells assessed as up regulation of RPL6 gene expression at cytotoxic IC50 measured after 48 hrs relative to control
# [32] = Inhibition of RTK/PI3K/AKT/mTOR signaling in human U87 cells assessed as down regulation of PTPN21 gene expression at cytotoxic IC50 measured after 48 hrs relative to control
smiles,measurement,setting,value
CC(=O)C(=NNc1ccccc1C#N)C(C)=O,log2FC,[1],-0.921
same,log2FC,[2],-0.936
same,log2FC,[3],1.98
same,log2FC,[4],0.982
same,log2FC,[5],0.812
same,log2FC,[6],0.666
same,log2FC,[7],0.498
same,log2FC,[8],0.819
same,log2FC,[9],-0.817
same,log2FC,[10],1.31
same,log2FC,[11],2.02
same,log2FC,[12],-1.31
same,log2FC,[13],0.739
same,log2FC,[14],-1.01
same,log2FC,[15],0.92
same,log2FC,[16],-0.638
same,log2FC,[17],1.34
same,log2FC,[18],0.808
same,log2FC,[19],-0.641
same,log2FC,[20],-0.833
same,log2FC,[21],1.03
same,log2FC,[22],-1.59
same,log2FC,[23],1.02
same,log2FC,[24],-1
same,log2FC,[25],-0.388
same,log2FC,[26],0.54
same,log2FC,[27],-0.862
same,log2FC,[28],-0.773
same,log2FC,[29],1.02
same,log2FC,[30],-0.475
same,log2FC,[31],0.427
same,log2FC,[32],-1.01
